Measurements from publication PMC11324303.
Like-named read-outs stand apart in the source and are kept apart here. Results are given in words; binding and its absence hold for the method and conditions named. Binding seen in cells or lysates may run through a third protein. Some binding calls cover weakened binding; strength is not graded here. One block for each molecule: values may come before it.

Amino acid sequences for entries named in this document (tags omitted). Residues count along the entry.
UniProt O14786, residues 22-923: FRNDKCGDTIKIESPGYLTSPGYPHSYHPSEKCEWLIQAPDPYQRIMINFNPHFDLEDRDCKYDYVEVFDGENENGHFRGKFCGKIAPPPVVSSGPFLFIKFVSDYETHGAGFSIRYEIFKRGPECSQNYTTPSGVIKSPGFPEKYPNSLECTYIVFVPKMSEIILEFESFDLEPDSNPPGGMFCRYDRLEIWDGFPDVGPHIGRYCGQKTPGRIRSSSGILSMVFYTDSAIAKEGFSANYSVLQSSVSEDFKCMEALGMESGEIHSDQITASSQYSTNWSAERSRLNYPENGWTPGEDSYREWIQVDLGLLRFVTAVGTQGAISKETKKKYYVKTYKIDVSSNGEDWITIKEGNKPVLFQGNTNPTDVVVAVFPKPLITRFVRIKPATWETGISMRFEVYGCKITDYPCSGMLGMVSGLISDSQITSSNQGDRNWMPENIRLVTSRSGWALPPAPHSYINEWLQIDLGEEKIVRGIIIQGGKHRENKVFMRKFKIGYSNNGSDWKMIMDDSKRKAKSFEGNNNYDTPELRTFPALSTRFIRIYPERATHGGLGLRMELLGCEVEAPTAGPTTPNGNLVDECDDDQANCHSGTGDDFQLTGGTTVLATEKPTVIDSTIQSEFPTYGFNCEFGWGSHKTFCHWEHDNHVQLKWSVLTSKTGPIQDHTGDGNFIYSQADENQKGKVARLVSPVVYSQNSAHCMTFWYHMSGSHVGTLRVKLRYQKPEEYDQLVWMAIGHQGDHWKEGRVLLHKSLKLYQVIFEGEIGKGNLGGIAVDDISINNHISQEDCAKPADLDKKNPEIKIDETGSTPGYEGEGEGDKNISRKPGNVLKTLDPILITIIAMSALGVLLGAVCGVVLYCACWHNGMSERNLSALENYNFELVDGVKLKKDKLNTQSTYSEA

Key:
[1] = target: T1, SLC44A2 (mouse) (mouse (endogenous in aorta)) (UniProt Q8BY89); experiment: proximity ligation; Duolink PLA on fixed, permeabilised suprarenal abdominal aortic cryosections of mice infused with saline or Ang II (Apoe-/-, Lenti-Slc44a2, Slc44a2 WT or SMKO, with or without LEN)
T1 sequence: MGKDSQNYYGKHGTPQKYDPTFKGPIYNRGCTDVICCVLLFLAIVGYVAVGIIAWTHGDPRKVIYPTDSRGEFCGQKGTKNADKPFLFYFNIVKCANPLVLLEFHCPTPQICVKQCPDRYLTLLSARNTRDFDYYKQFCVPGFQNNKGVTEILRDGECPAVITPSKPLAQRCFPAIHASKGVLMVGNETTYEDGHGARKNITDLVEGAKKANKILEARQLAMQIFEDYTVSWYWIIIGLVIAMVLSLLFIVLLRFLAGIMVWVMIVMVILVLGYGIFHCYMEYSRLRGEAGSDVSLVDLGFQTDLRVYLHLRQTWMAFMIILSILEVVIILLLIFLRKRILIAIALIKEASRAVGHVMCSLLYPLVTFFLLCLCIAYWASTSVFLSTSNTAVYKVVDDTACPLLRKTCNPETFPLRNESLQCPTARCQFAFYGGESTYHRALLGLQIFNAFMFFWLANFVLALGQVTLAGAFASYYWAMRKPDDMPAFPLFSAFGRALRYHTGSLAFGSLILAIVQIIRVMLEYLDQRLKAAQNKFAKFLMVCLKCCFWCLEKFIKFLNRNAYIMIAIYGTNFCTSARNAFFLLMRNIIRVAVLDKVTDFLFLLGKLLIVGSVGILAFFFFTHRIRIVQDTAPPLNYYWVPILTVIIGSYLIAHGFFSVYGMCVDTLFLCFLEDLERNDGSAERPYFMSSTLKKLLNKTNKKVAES

[2] = target: T2, SLC44A2 (human (endogenous in HASMCs)) (UniProt Q8IWA5); experiment: co-IP; HASMC lysates, cells treated with Ang II (1 μM); IP anti-SLC44A2, blot anti-NRP1 (Figure 5B); IP anti-NRP1, blot anti-SLC44A2 (Figure 5C)
T2 sequence: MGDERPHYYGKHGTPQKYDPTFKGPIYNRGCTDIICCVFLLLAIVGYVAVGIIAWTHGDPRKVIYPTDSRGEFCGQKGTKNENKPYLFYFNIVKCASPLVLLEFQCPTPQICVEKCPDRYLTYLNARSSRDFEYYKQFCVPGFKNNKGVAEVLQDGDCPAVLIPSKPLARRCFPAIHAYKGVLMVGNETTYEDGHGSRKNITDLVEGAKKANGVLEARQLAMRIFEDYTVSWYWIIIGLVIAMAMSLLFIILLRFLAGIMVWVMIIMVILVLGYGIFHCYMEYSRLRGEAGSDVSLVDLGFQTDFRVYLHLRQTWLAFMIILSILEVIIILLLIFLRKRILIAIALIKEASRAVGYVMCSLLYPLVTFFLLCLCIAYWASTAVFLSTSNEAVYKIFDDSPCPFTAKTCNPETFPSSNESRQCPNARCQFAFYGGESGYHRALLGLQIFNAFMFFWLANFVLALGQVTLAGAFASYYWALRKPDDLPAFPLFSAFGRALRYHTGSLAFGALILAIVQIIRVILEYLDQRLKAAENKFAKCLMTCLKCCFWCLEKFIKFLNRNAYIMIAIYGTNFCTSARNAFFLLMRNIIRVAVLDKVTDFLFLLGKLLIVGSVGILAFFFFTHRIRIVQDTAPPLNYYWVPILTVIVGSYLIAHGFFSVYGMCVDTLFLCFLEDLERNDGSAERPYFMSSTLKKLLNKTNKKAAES

[3] = target: T1, SLC44A2 (mouse) (mouse (endogenous in aorta)); experiment: proximity ligation; Duolink PLA on fixed, permeabilised suprarenal abdominal aortic cryosections of mice infused with saline or Ang II (Apoe-/-, Lenti-Slc44a2, Slc44a2 WT or SMKO, with or without LEN); remark: listed apart in the source

- binding [1]: binds
Molecule: NRP1 (mouse) (from UniProt P97333 22-923) (receptor)

- binding [2]: binds
Molecule: neuropilin-1 (NRP1) (from UniProt O14786 22-923) (receptor)

- binding [3]: binds
B1: ITGB3 (mouse) (receptor, UniProt O54890 26-787)
chain: ESNICTTRGVNSCQQCLAVSPVCAWCSDETLSQGSPRCNLKENLLKDNCAPESIEFPVSEAQILEARPLSSKGSGSSAQITQVSPQRIALRLRPDDSKIFSLQVRQVEDYPVDIYYLMDLSFSMKDDLSSIQTLGTKLASQMRKLTSNLRIGFGAFVDKPVSPYMYISPPQAIKNPCYNMKNACLPMFGYKHVLTLTDQVSRFNEEVKKQSVSRNRDAPEGGFDAIMQATVCDEKIGWRNDASHLLVFTTDAKTHIALDGRLAGIVLPNDGHCHIGTDNHYSASTTMDYPSLGLMTEKLSQKNINLIFAVTENVVSLYQNYSELIPGTTVGVLSDDSSNVLQLIVDAYGKIRSKVELEVRDLPEELSLSFNATCLNNEVIPGLKSCVGLKIGDTVSFSIEAKVRGCPQEKEQSFTIKPVGFKDSLTVQVTFDCDCACQAFAQPSSPRCNNGNGTFECGVCRCDQGWLGSMCECSEEDYRPSQQEECSPKEGQPICSQRGECLCGQCVCHSSDFGKITGKYCECDDFSCVRYKGEMCSGHGQCNCGDCVCDSDWTGYYCNCTTRTDTCMSTNGLLCSGRGNCECGSCVCVQPGSYGDTCEKCPTCPDACSFKKECVECKKFNRGTLHEENTCSRYCRDDIEQVKELTDTGKNAVNCTYKNEDDCVVRFQYYEDTSGRAVLYVVEEPECPKGPDILVVLLSVMGAILLIGLATLLIWKLLITIHDRKEFAKFEEERARAKWDTANNPLYKEATSTFTNITYRGT
